These are literature values, as cited in article PMC5646416 (Journal of clinical pharmacy and therapeutics, 2017).

For this data set the following is noted: single-dose pharmacokinetic studies.

SMILES strings stand for the structures.

Consider `CC(C)c1c(C(=O)Nc2ccccc2)c(-c2ccccc2)c(-c2ccc(F)cc2)n1CC[C@@H](O)C[C@@H](O)CC(=O)O` [atorvastatin], for which the “AUC higher in rs4149056 CC homozygotes than in rs4149056 TT homozygotes” value is recorded as 144%.
